19 compounds from the supplement of paper PMC9744312 can be followed below.

Structures can show the parent of a compound that is named as a salt. Some of the results follow. Single values of this set are uncertain.

The subject of the assay is Peyronie's disease tunica albuginea primary fibroblasts. The assay can be described thus: inhibition of TGF-beta1-induced alpha-SMA expression (myofibroblast transformation), relative to TGF-beta1-only and untreated controls; higher = stronger inhibition of myofibroblast transformation. Particulars: 10 µM; TGF-beta1 10 ng/mL; 72 h.
As for `CCN(CC)Cc1cc(Nc2ccnc3cc(Cl)ccc23)ccc1O` [Amodiaquine hydrochloride], the “inhibition of TGF-beta1-induced alpha-SMA expression” value (shortened to “inhibition”) was determined as 56.3%.

Consider `CCN(CC)Cc1cc(Nc2ccnc3cc(Cl)ccc23)ccc1O` [Amodiaquine dihydrochloride dihydrate], for which the “inhibition” value is above 100%.

Consider `C[C@H](CSC(=O)c1ccccc1)C(=O)N1C[C@@H](Sc2ccccc2)C[C@H]1C(=O)O` [Zofenopril calcium], for which the “inhibition” value is 25.8%.

As to `CN1CCOC(c2ccccc2)c2ccccc2C1` (centres undefined) [Nefopam HCl], the “inhibition” value came to 8.1%.

`CN1CCC(=C2c3ccccc3CCc3sccc32)CC1` [Pizotifen Malate]: the “inhibition” value is 47.6%.

In the case of `COc1ncc(-c2ccc3nccc(-c4ccnnc4)c3c2)cc1NS(=O)(=O)c1ccc(F)cc1F`, the “inhibition” value was above 100%.

As to `C=C[C@@H]1C[C@]1(NC(=O)[C@@H]1C[C@@H]2CN1C(=O)[C@H](C(C)(C)C)NC(=O)O[C@@H]1C[C@H]1CCCCCc1nc3ccc(OC)cc3nc1O2)C(=O)NS(=O)(=O)C1CC1` [Grazoprevir], the “inhibition” value turned out to be 3.27%.

`CCN(CC)CCOc1ccc(C(=C(Cl)c2ccccc2)c2ccccc2)cc1` [Clomifene citrate]: the “inhibition” value came out at 79.3%.

For `C[C@]1(COc2ccc(N3CCC(Oc4ccc(OC(F)(F)F)cc4)CC3)cc2)Cn2cc([N+](=O)[O-])nc2O1` [Delamanid], the “inhibition” value came to 28.3%.

`CCCCNc1ccc(C(=O)OCCN(C)C)cc1` [Tetracaine HCl]: the “inhibition” value worked out at 10%.

As to `CCCCC(=O)N(Cc1ccc(-c2ccccc2-c2nn[nH]n2)cc1)C(C(=O)O)C(C)C.CCOC(=O)C(C)CC(Cc1ccc(-c2ccccc2)cc1)NC(=O)CCC(=O)O` (centres undefined) [Sacubitril/valsartan (LCZ696)], the “inhibition” value was determined as 0.83%.

For `CCCCCOC(=O)Nc1nc(=O)n([C@@H]2O[C@H](C)[C@@H](O)[C@H]2O)cc1F` [Capecitabine], the “inhibition” value is -61.2%.

Take `CC(C)=CCC/C(C)=C/CC/C(C)=C/CSc1ccccc1C(=O)O` [Salirasib]: the “inhibition” value was determined as 3.04%.

Turning to `Cc1ncc(COP(=O)(O)O)c(C=O)c1O` [Pyridoxal phosphate], the “inhibition” value was found to be 88.6%.

Consider `CC(COc1ccccc1Cc1ccccc1)N1CCCCC1` (centres undefined) [Benproperine phosphate], for which the “inhibition” value amounted to 33.5%.

Regarding `CC(O)(P(=O)(O)O)P(=O)(O)O` [Etidronate], the “inhibition” value turned out to be 58.3%.

For `O=C(O)COCCN1CCN([C@H](c2ccccc2)c2ccc(Cl)cc2)CC1` [Levocetirizine Dihydrochloride], the “inhibition” value was 34.4%.

For the compound `Cc1cnc(C(=O)NCCc2ccc(S(=O)(=O)NC(=O)NC3CCCCC3)cc2)cn1` [Glipizide], the “inhibition” value was -2.53%.

For the compound `COc1ccc2c(O[C@@H]3C[C@H]4C(=O)N[C@]5(C(=O)NS(=O)(=O)C6CC6)C[C@H]5/C=C\CCCCN(C)C(=O)[C@@H]4C3)cc(-c3nc(C(C)C)cs3)nc2c1C` [Simeprevir], the “inhibition” value is -3.57%.
